Experimental data as given in paper PMC5552905, “Mechanisms of peptide sex pheromone regulation of conjugation in Enterococcus faecalis” (MicrobiologyOpen, 2017).

B1: PrgX: master transcription regulator PrgX, a repressor of transcription of the prgQ operon; apo form is a dimer in solution (protein)
chain: MFKIGSVLKQIRQELNYHQIDLYSGIMSKSVYIKVEADSRPISVEELSKFSERLGVNFFEILNRAGMNTKSVNETGKEKLLISKIFTNPDLFDKNFQRIEPKRLTSLQYFSIYLGYISIAHHYNIEVPTFNKTITSDLKHLYDKRTTFFGIDYEIVSNLLNVLPYEEVSSIIKPMYPIVDSFGKDYDLTIQTVLKNALTISIMNRNLKEAQYYINQFEHLKTIKNISINGYYDLEINYLKQIYQFLTDKNIDSYLNAVNIINIFKIIGKEDIHRSLVEELTKISAKEKFTPPKEVTMYYENYVAIENNPIPEIKEQS
modifications: left off: His tag, end not stated, kept
notes: master transcription regulator PrgX, a repressor of transcription of the prgQ operon; apo form is a dimer in solution
B2: PrgX‐C: PrgX/cCF10 complex (tetramer), purified by nickel affinity and size exclusion chromatography (protein)
chain 1: B1 chain
chain 2: LVTLVFV
modifications: left off: His tag, end not stated, kept
B3: PrgX‐I: PrgX/iCF10 complex (tetramer), purified by nickel affinity and size exclusion chromatography (protein)
chain 1: B1 chain
chain 2: AITLIFI
modifications: left off: His tag, end not stated, kept

Test system: PrgX
Assay: Size exclusion chromatography: PrgX oligomerization state in solution
Design: species or system Enterococcus faecalis
Conditions: Superdex 200 Hiload 16/600, 20 mmol L^−1 Tris–HCl pH 8.0, 300 mmol L^−1 NaCl, absence of DNA

Molecule	apparent mass (size exclusion chromatography) (UV 280)	oligomerization state in solution
B1	74 KDa	eluted as a dimer
B2		consistent with tetramers
B3		consistent with tetramers
